PubChem BioAssay AID1224830 – NIAID, 2016

Purpose: 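Genes whose knock-down alters the TNF-alpha reporter response to LPS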 (primary screen)
Cells: human THP-1 monocytic leukaemia cells, TNF dual-luciferase reporter clone, PMA-differentiated to macrophage-like cells
Reagents: siRNA pool against human genes, 50 nM
Time to read-out: LPS for 4 h, given about 3 days after siRNA transfection
Treatment: bacterial LPS (TLR4 ligand), 10 ng/ml
Measurement: 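Ratio of firefly to renilla light, scaled to the plate median and expressed as a robust z-score per replicate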
Direction: TNF reporter robust z-score: higher = stronger TNF reporter response to LPS
Active means: 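a well is active when its z-score exceeds 2.8 or falls below -1.5; control wells carry no call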
Shown is a random part of about 18,000 reagents. About 2,900 of them (16%) count as active. 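Calls are made per well; low scores hint the gene aids the LPS response, high scores that it dampens it.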 Repeated entries: four replicate wells of each siRNA pool.

The opening 5 entries, ahead of the listing:
no.	Target gene	TNF reporter robust z-score	Call
1	SCAMP1	3.1	active
2	SCAMP1	1.19	inactive
3	SCAMP1	2.87	active
4	SCAMP1	3.7	active
5	GALNTL5	0.03	inactive

The listing, from the start:
no.	Target gene	TNF reporter robust z-score	Call
1	SCAMP1	3.1	active
2	SCAMP1	1.19	inactive
3	SCAMP1	2.87	active
4	SCAMP1	3.7	active
5	GALNTL5	0.03	inactive
6	GALNTL5	0.22	inactive
7	GALNTL5	0.37	inactive
8	GALNTL5	0.05	inactive
9	GPRIN1	-0.26	inactive
10	GPRIN1	-0.22	inactive
11	GPRIN1	-0.53	inactive
12	GPRIN1	-1.33	inactive
13	R3HCC1L	-0.41	inactive
14	R3HCC1L	0.79	inactive
15	R3HCC1L	0.57	inactive
16	R3HCC1L	1.1	inactive
17	LMAN1	2.94	active
18	LMAN1	1.56	inactive
19	LMAN1	0.43	inactive
20	LMAN1	-0.04	inactive
21	TNFRSF10B	4.47	active
22	TNFRSF10B	4.77	active
23	TNFRSF10B	1.97	inactive
24	TNFRSF10B	1.39	inactive
25	INTS3	-0.81	inactive
26	INTS3	0.06	inactive
27	INTS3	-0.02	inactive
28	INTS3	0.62	inactive
29	ALG10	0.59	inactive
30	ALG10	0.13	inactive
31	ALG10	1.1	inactive
32	ALG10	1.13	inactive
33	OR6C65	0.76	inactive
34	OR6C65	1.04	inactive
35	OR6C65	-0.64	inactive
36	OR6C65	0.78	inactive
37	HDHD5	1.03	inactive
38	HDHD5	1.51	inactive
39	HDHD5	1.42	inactive
40	HDHD5	2.14	inactive
41	NHERF1	0.62	inactive
42	NHERF1	-0.01	inactive
43	NHERF1	-0.02	inactive
44	NHERF1	1.36	inactive
45	ABHD17B	0.61	inactive
46	ABHD17B	0.37	inactive
47	ABHD17B	0.11	inactive
48	ABHD17B	-0.47	inactive
49	RBM12B	-0.59	inactive
50	RBM12B	0.43	inactive
51	RBM12B	-0.41	inactive
52	RBM12B	1.07	inactive
53	RRAGA	-1.29	inactive
54	RRAGA	-0.87	inactive
55	RRAGA	-1.38	inactive
56	RRAGA	-0.72	inactive
57	GSTO1	-0.46	inactive
58	GSTO1	-1.17	inactive
59	GSTO1	-1.56	active
60	GSTO1	-1.29	inactive
61	PKN2	-1.69	active
62	PKN2	-1.67	active
63	PKN2	0.61	inactive
64	PKN2	0.34	inactive
65	CLMP	-0.09	inactive
66	CLMP	-0.31	inactive
67	CLMP	0.72	inactive
68	CLMP	0.02	inactive
69	CSRNP2	1.37	inactive
70	CSRNP2	1.52	inactive
71	CSRNP2	-0.29	inactive
72	CSRNP2	1.89	inactive
73	CLNS1A	0.66	inactive
74	CLNS1A	0.99	inactive
75	CLNS1A	0.54	inactive
76	CLNS1A	0.9	inactive
